Source: article PMC5404329

Chains of the proteins cited; added tags and fusions are not shown. Lines headed by an entry give the natural chain unless they say otherwise; changes in a name come on top.
UniProt P09038: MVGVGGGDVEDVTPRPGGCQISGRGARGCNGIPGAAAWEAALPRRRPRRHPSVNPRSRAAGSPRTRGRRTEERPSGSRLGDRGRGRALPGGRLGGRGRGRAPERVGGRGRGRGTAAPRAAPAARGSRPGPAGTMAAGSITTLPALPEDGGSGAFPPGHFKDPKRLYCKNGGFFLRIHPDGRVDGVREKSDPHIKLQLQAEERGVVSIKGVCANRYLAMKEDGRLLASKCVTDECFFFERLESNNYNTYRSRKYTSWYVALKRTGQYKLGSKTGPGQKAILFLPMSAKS

T1: Glypican-2 (human (endogenous in hESC-derived neural progenitor cells)) (UniProt Q8N158)
T1 sequence: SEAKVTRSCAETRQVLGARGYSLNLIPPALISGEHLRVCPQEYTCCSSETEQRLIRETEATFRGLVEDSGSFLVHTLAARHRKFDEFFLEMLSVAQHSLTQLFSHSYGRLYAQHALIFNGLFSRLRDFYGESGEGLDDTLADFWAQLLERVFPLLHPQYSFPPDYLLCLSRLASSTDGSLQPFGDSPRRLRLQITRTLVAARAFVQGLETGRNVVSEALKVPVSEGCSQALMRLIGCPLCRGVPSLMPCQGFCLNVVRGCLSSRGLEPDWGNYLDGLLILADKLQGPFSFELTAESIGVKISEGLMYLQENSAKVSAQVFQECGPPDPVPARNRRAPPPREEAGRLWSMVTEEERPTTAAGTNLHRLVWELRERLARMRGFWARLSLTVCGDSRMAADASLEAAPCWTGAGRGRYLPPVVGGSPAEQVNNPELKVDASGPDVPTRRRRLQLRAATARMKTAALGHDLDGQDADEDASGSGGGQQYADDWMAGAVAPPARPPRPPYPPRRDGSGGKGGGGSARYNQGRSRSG


Biological target: T1, Glypican-2 (human (endogenous in hESC-derived neural progenitor cells))
Assay: affinity purification with mass spectrometry; immunocompetitive capture mass spectrometry (ICC-MS): anti-Gpc2 resin (clone 2/43) incubated 1 h with lysates of 21-day differentiated NPCs (850 ug total protein per condition), lysates pre-incubated with 0, 100, 250, 500 and 1000 ng free anti-Gpc2 antibody, in triplicate; eluates on SDS-PAGE …

Row | binding | Molecule
1 | binds | Fibroblast Growth Factor 2 (from UniProt P09038) (ligand)
2 | binds | GSLG1 (receptor, UniProt Q92896 30-1179) LPGQGVHSQGQGPGANFVSFVGQAGGGGPAGQQLPQLPQSSQLQQQQQQQQQQQQPQPPQPPFPAGGPPARRGGAGAGGGWKLAEEESCREDVTRVCPKHTWSNNLAVLECLQDVREPENEISSDCNHLLWNYKLNLTTDPKFESVAREVCKSTITEIKECADEPVGKGYMVSCLVDHRGNITEYQCHQYITKMTAIIFSDYRLICGFMDDCKNDINILKCGSIRLGEKDAHSQGEVVSCLEKGLVKEAEEREPKIQVSELCKKAILRVAELSSDDFHLDRHLYFACRDDRERFCENTQAGEGRVYKCLFNHKFEESMSEKCREALTTRQKLIAQDYKVSYSLAKSCKSDLKKYRCNVENLPRSREARLSYLLMCLESAVHRGRQVSSECQGEMLDYRRMLMEDFSLSPEIILSCRGEIEHHCSGLHRKGRTLHCLMKVVRGEKGNLGMNCQQALQTLIQETDPGADYRIDRALNEACESVIQTACKHIRSGDPMILSCLMEHLYTEKMVEDCEHRLLELQYFISRDWKLDPVLYRKCQGDASRLCHTHGWNETSEFMPQGAVFSCLYRHAYRTEEQGRRLSRECRAEVQRILHQRAMDVKLDPALQDKCLIDLGKWCSEKTETGQELECLQDHLDDLVVECRDIVGNLTELESEDIQIEALLMRACEPIIQNFCHDVADNQIDSGDLMECLIQNKHQKDMNEKCAIGVTHFQLVQMKDFRFSYKFKMACKEDVLKLCPNIKKKVDVVICLSTTVRNDTLQEAKEHRVSLKCRRQLRVEELEMTEDIRLEPDLYEACKSDIKNFCSAVQYGNAQIIECLKENKKQLSTRCHQKVFKLQETEMMDPELDYTLMRVCKQMIKRFCPEADSKTMLQCLKQNKNSELMDPKCKQMITKRQITQNTDYRLNPMLRKACKADIPKFCHGILTKAKDDSELEGQVISCLKLRYADQRLSSDCEDQIRIIIQESALDYRLDPQLQLHCSDEISSLCAEEAAAQEQTGQVEECLKVNLLKIKTELCKKEVLNMLKESKADIFVDPVLHTACALDIKHHCAAITPGRGRQMSCLMEALEDKRVRLQPECKKRLNDRIEMWSYAAKVAPADGFSDLAMQVMTSPSKNYILSVISGSICILFLIGLMCGRITKRVTRELKDR

These are yes or no findings as the source states them, for the method shown. Binding seen in cells or lysates may run through a third protein. These calls come from enrichment with a bait or labelling near it, and not all partners need be listed.
